Test results taken from patent publication US20240000961A1, “ANTIBODY-BASED CONJUGATE FOR ENHANCING THERAPEUTIC EFFECT OF TARGETED THERAPEUTIC AGENT” (THE CATHOLIC UNIVERSITY OF KOREA INDUSTRY-ACADEMIC …, priority 2020, published 2024).
Some entries share one result that the patent states for a list of compounds.

What was measured:
[1] = test system: A549 lung cancer cell line expressing PD-L1; type: cell-based; details: A549, MTT
Description: (§1) Thereafter, the viability and cytotoxicity of cells were analyzed in the same manner as in Experimental Example 2-1.
(§2) Lung cancer and colorectal cancer cell lines expressing PD-L1 (A549 and HCT116, respectively) were cultured, and then treated with an avelumab-succinyl-Pluronic conjugate. Thereafter, the viability and cytotoxicity of cells were analyzed in the same manner as in Experimental Example 2-1.

[2] = test system: HCT116 (HCTE116) colorectal cancer cell line expressing PD-L1; type: cell-based; details: HCT116, MTT
Description: as §1, §2

With “avelumab-succinyl-Pluronic F68 [AVE-Suc-PF68]” the “concentration at which toxicity was exhibited” value [1] was ≤ 5 µg/mL and the “concentration at which toxicity was exhibited” value [2] was ≤ 5 µg/mL.
